# Data taken from the supplement of paper PMC6411743.
# Sequences of proteins named here, by UniProt entry; tags and fusion partners are left off. A change or cut given only in a name is not applied to a line headed by its entry.
# UniProt Q8NCW5: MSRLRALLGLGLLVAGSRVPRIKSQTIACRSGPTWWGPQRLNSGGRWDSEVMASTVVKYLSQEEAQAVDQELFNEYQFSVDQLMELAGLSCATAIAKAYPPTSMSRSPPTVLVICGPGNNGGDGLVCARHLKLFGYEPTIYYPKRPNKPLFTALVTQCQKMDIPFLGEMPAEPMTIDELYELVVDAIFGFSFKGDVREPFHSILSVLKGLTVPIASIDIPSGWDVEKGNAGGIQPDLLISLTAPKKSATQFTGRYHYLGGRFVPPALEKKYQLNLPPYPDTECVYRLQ
# UniProt Q8N999, whole entry: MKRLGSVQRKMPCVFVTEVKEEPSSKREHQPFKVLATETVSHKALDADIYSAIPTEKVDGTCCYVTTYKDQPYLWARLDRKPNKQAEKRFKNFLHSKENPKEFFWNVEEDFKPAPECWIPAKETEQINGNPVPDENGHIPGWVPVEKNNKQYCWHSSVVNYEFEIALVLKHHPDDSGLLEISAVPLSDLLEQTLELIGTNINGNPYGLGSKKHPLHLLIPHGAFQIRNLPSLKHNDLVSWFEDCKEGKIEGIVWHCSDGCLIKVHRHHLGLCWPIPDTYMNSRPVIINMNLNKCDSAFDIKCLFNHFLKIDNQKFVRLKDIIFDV
# UniProt Q8N9M5: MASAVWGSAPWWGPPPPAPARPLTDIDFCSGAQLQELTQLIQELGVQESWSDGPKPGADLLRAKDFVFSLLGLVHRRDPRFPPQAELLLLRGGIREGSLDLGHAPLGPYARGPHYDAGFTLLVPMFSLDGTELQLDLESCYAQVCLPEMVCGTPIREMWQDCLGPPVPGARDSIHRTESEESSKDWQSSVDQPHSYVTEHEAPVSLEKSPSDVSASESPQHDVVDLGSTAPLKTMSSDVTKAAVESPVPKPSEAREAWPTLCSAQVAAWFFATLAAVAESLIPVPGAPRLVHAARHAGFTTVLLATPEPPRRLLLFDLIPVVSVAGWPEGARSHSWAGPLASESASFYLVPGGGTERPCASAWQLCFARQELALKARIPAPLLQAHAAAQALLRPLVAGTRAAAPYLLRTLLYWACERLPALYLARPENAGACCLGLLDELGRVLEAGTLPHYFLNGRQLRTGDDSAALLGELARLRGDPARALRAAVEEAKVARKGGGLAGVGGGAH
# UniProt Q8TC12: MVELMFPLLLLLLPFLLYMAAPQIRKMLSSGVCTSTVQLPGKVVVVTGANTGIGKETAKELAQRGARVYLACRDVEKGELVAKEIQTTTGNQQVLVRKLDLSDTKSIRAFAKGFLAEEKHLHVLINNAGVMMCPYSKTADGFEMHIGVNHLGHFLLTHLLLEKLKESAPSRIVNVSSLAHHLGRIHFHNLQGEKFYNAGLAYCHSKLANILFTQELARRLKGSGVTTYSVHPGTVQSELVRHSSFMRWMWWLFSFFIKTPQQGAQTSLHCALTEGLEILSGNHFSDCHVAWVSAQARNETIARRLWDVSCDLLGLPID
# UniProt Q8TBX8: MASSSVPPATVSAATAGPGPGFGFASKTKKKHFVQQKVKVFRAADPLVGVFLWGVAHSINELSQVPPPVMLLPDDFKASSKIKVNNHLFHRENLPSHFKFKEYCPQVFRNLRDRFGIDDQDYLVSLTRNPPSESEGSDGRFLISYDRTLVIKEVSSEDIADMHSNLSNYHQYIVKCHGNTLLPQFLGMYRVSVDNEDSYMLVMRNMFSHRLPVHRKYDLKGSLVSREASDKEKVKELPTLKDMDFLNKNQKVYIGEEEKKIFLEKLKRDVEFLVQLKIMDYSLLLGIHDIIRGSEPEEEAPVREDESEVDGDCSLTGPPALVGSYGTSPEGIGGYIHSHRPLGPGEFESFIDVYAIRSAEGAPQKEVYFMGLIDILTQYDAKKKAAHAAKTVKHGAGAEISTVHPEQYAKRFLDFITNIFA
# UniProt Q8NEF9: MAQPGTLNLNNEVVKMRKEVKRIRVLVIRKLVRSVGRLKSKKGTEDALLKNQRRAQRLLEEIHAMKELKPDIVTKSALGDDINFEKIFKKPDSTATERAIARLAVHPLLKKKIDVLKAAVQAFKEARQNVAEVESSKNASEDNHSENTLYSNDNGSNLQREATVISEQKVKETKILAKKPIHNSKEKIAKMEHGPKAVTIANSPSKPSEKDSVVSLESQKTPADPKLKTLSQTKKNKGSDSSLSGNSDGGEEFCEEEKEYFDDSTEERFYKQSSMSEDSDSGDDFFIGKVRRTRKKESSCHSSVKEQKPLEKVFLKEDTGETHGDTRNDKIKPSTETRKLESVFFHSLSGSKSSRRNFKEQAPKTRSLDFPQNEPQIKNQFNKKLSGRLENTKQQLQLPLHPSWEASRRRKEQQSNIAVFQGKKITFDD
# UniProt Q8IUR0, whole entry: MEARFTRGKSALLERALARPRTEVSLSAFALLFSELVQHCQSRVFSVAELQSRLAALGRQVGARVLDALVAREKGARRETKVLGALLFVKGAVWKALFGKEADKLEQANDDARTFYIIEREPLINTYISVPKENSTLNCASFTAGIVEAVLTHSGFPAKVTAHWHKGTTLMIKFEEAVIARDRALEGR
# UniProt Q8N335: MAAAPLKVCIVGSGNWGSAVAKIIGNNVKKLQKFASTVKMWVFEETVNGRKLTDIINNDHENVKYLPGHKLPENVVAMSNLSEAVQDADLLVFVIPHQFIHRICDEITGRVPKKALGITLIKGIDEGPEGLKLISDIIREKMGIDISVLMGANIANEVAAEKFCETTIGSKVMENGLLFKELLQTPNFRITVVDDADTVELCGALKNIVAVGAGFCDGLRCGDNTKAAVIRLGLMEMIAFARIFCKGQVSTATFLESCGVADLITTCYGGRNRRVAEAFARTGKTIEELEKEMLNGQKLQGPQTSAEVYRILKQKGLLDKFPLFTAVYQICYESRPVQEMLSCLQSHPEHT
# UniProt Q8N201, whole entry: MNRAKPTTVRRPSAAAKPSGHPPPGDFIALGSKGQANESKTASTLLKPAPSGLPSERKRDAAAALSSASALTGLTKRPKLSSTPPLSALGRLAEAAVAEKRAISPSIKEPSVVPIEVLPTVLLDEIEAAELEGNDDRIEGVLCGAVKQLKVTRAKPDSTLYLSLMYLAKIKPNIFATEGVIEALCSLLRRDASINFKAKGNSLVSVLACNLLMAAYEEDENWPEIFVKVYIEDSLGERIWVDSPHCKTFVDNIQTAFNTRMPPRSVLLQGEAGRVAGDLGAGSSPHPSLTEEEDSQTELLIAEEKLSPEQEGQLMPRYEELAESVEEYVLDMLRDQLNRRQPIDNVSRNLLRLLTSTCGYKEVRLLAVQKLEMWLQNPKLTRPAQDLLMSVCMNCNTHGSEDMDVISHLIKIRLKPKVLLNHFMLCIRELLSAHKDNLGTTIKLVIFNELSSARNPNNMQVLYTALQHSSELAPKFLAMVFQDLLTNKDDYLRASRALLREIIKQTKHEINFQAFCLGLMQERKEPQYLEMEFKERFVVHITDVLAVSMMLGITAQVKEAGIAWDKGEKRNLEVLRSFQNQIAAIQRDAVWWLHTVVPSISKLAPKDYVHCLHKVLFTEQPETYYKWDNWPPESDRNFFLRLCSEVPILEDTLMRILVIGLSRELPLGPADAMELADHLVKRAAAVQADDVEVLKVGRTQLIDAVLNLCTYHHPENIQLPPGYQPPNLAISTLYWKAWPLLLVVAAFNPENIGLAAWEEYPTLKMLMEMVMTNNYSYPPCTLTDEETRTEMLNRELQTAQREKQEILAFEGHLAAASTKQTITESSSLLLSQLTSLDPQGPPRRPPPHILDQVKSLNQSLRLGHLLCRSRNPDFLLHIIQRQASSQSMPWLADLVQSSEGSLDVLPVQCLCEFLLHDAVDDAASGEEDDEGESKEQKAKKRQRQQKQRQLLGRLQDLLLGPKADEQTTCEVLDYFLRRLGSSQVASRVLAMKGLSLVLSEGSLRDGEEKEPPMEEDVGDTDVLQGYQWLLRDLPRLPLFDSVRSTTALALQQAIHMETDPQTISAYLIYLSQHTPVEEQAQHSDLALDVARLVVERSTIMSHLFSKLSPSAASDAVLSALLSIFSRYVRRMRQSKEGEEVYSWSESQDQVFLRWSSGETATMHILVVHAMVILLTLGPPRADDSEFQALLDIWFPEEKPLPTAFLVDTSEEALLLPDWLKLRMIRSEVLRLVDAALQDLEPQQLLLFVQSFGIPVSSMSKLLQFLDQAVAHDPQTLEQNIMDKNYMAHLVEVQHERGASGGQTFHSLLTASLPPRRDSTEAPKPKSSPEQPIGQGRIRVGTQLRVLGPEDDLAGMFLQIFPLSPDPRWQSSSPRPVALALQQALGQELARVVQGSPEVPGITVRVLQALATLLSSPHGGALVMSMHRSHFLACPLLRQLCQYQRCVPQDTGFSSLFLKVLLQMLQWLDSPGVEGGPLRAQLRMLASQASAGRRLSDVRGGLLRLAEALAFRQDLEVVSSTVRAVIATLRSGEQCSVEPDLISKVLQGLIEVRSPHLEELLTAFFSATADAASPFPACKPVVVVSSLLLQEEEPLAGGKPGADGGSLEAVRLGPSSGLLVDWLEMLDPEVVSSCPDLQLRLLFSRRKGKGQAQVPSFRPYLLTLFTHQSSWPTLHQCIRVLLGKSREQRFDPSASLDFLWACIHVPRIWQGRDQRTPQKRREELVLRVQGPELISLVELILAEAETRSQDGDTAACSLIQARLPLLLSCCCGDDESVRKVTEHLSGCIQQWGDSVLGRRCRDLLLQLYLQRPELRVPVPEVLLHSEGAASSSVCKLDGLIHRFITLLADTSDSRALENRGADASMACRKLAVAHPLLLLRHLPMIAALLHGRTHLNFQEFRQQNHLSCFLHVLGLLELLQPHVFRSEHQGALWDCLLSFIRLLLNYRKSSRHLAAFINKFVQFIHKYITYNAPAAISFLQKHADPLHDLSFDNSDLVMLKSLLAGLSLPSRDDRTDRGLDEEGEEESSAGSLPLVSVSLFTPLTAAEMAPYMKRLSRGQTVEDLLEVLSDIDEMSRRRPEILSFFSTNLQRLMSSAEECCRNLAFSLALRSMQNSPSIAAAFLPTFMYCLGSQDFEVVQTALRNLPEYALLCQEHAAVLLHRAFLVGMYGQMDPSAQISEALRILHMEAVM
# UniProt Q8IVB5: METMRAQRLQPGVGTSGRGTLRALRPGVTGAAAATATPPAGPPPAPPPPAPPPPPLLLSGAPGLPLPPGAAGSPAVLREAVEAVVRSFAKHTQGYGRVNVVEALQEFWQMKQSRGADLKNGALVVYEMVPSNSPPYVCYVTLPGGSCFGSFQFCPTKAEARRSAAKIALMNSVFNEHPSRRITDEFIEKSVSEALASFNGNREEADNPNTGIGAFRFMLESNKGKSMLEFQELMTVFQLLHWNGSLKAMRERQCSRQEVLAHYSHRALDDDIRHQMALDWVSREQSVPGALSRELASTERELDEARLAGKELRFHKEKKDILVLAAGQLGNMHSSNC
# UniProt Q8IXS8: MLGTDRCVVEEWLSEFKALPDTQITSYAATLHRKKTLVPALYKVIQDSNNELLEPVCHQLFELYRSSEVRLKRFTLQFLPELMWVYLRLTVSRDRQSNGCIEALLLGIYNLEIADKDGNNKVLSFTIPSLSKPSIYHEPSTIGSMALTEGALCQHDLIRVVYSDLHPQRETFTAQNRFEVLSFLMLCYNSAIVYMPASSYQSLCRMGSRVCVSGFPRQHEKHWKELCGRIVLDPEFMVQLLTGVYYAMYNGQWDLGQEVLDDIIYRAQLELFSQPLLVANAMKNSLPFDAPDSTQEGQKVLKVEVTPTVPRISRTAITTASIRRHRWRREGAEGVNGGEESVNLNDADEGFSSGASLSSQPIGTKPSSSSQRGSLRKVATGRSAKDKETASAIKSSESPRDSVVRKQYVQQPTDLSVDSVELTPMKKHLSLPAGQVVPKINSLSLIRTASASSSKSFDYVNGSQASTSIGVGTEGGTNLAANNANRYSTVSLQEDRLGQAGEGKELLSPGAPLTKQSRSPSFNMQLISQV
# UniProt Q8NBL1: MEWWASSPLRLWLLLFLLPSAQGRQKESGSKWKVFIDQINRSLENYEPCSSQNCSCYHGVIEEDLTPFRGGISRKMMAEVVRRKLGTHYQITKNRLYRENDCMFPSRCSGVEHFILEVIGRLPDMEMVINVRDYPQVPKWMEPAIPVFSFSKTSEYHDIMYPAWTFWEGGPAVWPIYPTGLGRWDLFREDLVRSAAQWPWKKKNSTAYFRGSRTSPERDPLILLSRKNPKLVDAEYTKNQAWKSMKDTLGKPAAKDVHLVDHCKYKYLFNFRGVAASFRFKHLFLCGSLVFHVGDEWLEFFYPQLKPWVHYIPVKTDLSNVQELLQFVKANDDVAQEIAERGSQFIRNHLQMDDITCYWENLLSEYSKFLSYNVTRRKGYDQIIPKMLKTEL
# ± gives the standard deviation of the averaged measurements. The list shows a part of the results.
# Compound: Nc1nc2c(ncn2[C@@H]2O[C@H](COP(=O)(O)OP(=O)(O)OP(=O)(O)O)[C@@H](O)[C@H]2O)c(=O)[nH]1 [guanosine triphosphate]
# Assay: NP40-soluble protein abundance relative to vehicle (solubility fold change) (ratio); higher = more soluble protein in presence of GTP
# In short: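 Across three independent experiments, values are fold changes against the detergent-processed vehicle for each replicate, based on vsn-normalised intensities. The samples were Jurkat crude lysate treated with eight concentrations (0.1 to 10 mM) for 10 min at room temperature and then 3 min at 37 °C. Lysate was solubilised with 0.8% NP40 and benzonase, ultracentrifuged, and the supernatant analysed by TMT-labelled LC-MS/MS.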
Target,NP40-soluble protein abundance (concentration: 0.1mM),NP40-soluble protein abundance (concentration: 0.5mM),NP40-soluble protein abundance (concentration: 1mM),NP40-soluble protein abundance (concentration: 2mM),NP40-soluble protein abundance (concentration: 4mM),NP40-soluble protein abundance (concentration: 6mM),NP40-soluble protein abundance (concentration: 8mM),NP40-soluble protein abundance (concentration: 10mM)
UniProt Q8NCW5,0.907 ± 0.084,0.869 ± 0.041,0.991 ± 0.083,0.986 ± 0.055,0.967 ± 0.085,0.932 ± 0.08,0.895 ± 0.11,0.969 ± 0.1
GEMIN5 (UniProt Q8TEQ6),1.05 ± 0.049,1.07 ± 0.051,0.988 ± 0.047,1.02 ± 0.074,1.03 ± 0.061,1.01 ± 0.072,0.985 ± 0.026,0.965 ± 0.058
UniProt Q8IZE3-2|X6RHX1,1.11 ± 0.11,1.04 ± 0.059,1.01 ± 0.027,0.953 ± 0.09,0.969 ± 0.021,0.904 ± 0.059,1.01 ± 0.04,0.936 ± 0.12
UniProt Q8NCA5 and related entries,0.933 ± 0.056,0.95 ± 0.099,0.994 ± 0.04,1.1 ± 0.092,1.32 ± 0.11,1.39 ± 0.17,1.45 ± 0.23,1.73 ± 0.23
UniProt Q8N9B5 and related entries,1.03 ± 0.056,1.01 ± 0.14,1.05 ± 0.096,1 ± 0.11,0.997 ± 0.077,1.04 ± 0.081,0.918 ± 0.074,0.901 ± 0.063
ASCC3 (UniProt Q8N3C0),1 ± 0.066,1.09 ± 0.026,1.06 ± 0.032,1.16 ± 0.091,1.32 ± 0.17,1.38 ± 0.22,1.53 ± 0.26,1.73 ± 0.27
UniProt Q86XI2 and related entries,1.1 ± 0.16,1.16 ± 0.17,1.09 ± 0.15,1.16 ± 0.22,1.13 ± 0.22,1.13 ± 0.18,1.13 ± 0.12,1.1 ± 0.22
UniProt Q8N999 and related entries,0.999 ± 0.092,1.04 ± 0.09,0.957 ± 0.066,0.983 ± 0.044,0.929 ± 0.07,0.977 ± 0.049,0.949 ± 0.09,0.927 ± 0.041
TMEM102 (UniProt Q8N9M5),0.897 ± 0.027,0.859 ± 0.13,0.873 ± 0.05,0.901 ± 0.1,0.92 ± 0.077,0.909 ± 0.071,0.849 ± 0.022,0.821 ± 0.059
RDH11 (UniProt Q8TC12),1 ± 0.014,0.985 ± 0.024,0.911 ± 0.034,0.895 ± 0.051,0.867 ± 0.048,0.88 ± 0.015,0.824 ± 0.084,0.782 ± 0.082
VPS52 (UniProt Q8N1B4),1.04 ± 0.034,1.126 ± 0.0098,1.02 ± 0.068,0.998 ± 0.099,0.992 ± 0.13,0.969 ± 0.06,0.957 ± 0.074,0.931 ± 0.091
UniProt Q8TBX8 and related entries,0.982 ± 0.028,1.01 ± 0.028,0.975 ± 0.087,0.985 ± 0.03,0.936 ± 0.064,0.949 ± 0.032,0.929 ± 0.062,0.921 ± 0.03
UniProt Q8NFF5 and related entries,0.957 ± 0.049,0.924 ± 0.06,0.944 ± 0.012,0.893 ± 0.057,0.834 ± 0.024,0.932 ± 0.016,0.852 ± 0.029,0.855 ± 0.045
UniProt Q8TEX9 and related entries,1.06 ± 0.027,1.02 ± 0.061,0.956 ± 0.034,0.999 ± 0.059,0.949 ± 0.026,0.941 ± 0.05,0.929 ± 0.029,0.9436 ± 0.0038
SRFBP1 (UniProt Q8NEF9),0.947 ± 0.019,0.897 ± 0.064,1.01 ± 0.038,1.03 ± 0.083,1.06 ± 0.072,1.04 ± 0.09,1.02 ± 0.12,1.1 ± 0.055
UniProt Q8IUR0 and related entries,1.03 ± 0.08,1.01 ± 0.1,0.936 ± 0.14,0.994 ± 0.16,1.01 ± 0.16,0.929 ± 0.2,0.901 ± 0.066,0.918 ± 0.11
GPD1L (UniProt Q8N335),0.994 ± 0.03,0.975 ± 0.012,0.92 ± 0.029,0.942 ± 0.035,0.91 ± 0.017,0.904 ± 0.027,0.892 ± 0.05,0.898 ± 0.055
INTS1 (UniProt Q8N201),1.16 ± 0.11,1.22 ± 0.14,1.18 ± 0.24,1.34 ± 0.25,1.36 ± 0.27,1.34 ± 0.3,1.32 ± 0.26,1.3 ± 0.25
TOR1AIP2 (UniProt Q8NFQ8),0.76 ± 0.027,0.805 ± 0.066,0.809 ± 0.042,0.872 ± 0.043,0.742 ± 0.066,0.872 ± 0.084,0.756 ± 0.034,0.907 ± 0.047
LIX1L (UniProt Q8IVB5),0.994 ± 0.051,0.952 ± 0.083,0.98 ± 0.07,0.942 ± 0.076,0.938 ± 0.083,0.926 ± 0.1,0.893 ± 0.089,0.927 ± 0.079
FAM126B (UniProt Q8IXS8),1.04 ± 0.041,1.15 ± 0.003,1.14 ± 0.028,1.089 ± 0.0094,1.11 ± 0.017,1.14 ± 0.046,1.16 ± 0.015,1.14 ± 0.052
UniProt Q8NBL1,0.975 ± 0.019,0.975 ± 0.024,0.936 ± 0.029,0.935 ± 0.045,0.908 ± 0.064,0.927 ± 0.074,0.941 ± 0.028,0.924 ± 0.034

# Some of the entries above, reformatted:
Target	NP40-soluble protein abundance (concentration: 0.1mM)	NP40-soluble protein abundance (concentration: 0.5mM)	NP40-soluble protein abundance (concentration: 1mM)	NP40-soluble protein abundance (concentration: 2mM)	NP40-soluble protein abundance (concentration: 4mM)	NP40-soluble protein abundance (concentration: 6mM)	NP40-soluble protein abundance (concentration: 8mM)	NP40-soluble protein abundance (concentration: 10mM)
FAM126B (UniProt Q8IXS8)	1.04 ± 0.041	1.15 ± 0.003	1.14 ± 0.028	1.089 ± 0.0094	1.11 ± 0.017	1.14 ± 0.046	1.16 ± 0.015	1.14 ± 0.052
UniProt Q8NBL1	0.975 ± 0.019	0.975 ± 0.024	0.936 ± 0.029	0.935 ± 0.045	0.908 ± 0.064	0.927 ± 0.074	0.941 ± 0.028	0.924 ± 0.034
